Laboratory results published in doi:10.1101/2021.12.06.471409.
These are yes or no findings as the source states them, for the method shown. Binding seen in cells or lysates may run through a third protein. Some entries that bind do so weakly or less than the wild type.

The chains behind the UniProt entries cited, without tags or fusion partners.
UniProt Q96S21: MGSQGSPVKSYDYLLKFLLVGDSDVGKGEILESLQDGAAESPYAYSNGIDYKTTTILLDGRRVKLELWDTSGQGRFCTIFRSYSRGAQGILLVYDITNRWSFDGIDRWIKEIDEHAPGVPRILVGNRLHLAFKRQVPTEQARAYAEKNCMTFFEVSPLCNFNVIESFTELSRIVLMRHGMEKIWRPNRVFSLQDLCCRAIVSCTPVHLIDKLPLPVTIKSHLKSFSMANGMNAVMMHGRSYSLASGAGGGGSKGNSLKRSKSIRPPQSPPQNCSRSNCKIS

B1: ANKRD28 (endogenous, 293T) (protein, UniProt O15084 1-1053)
chain: MAFLKLRDQPSLVQAIFNGDPDEVRALIFKKEDVNFQDNEKRTPLHAAAYLGDAEIIELLILSGARVNAKDSKWLTPLHRAVASCSEEAVQVLLKHSADVNARDKNWQTPLHIAAANKAVKCAEALVPLLSNVNVSDRAGRTALHHAAFSGHGEMVKLLLSRGANINAFDKKDRRAIHWAAYMGHIEVVKLLVSHGAEVTCKDKKSYTPLHAAASSGMISVVKYLLDLGVDMNEPNAYGNTPLHVACYNGQDVVVNELIDCGAIVNQKNEKGFTPLHFAAASTHGALCLELLVGNGADVNMKSKDGKTPLHMTALHGRFSRSQTIIQSGAVIDCEDKNGNTPLHIAARYGHELLINTLITSGADTAKRGIHGMFPLHLAALSGFSDCCRKLLSSGFDIDTPDDFGRTCLHAAAAGGNLECLNLLLNTGADFNKKDKFGRSPLHYAAANCNYQCLFALVGSGASVNDLDERGCTPLHYAATSDTDGKCLEYLLRNDANPGIRDKQGYNAVHYSAAYGHRLCLQLIASETPLDVLMETSGTDMLSDSDNRATISPLHLAAYHGHHQALEVLVQSLLDLDVRNSSGRTPLDLAAFKGHVECVDVLINQGASILVKDYILKRTPIHAAATNGHSECLRLLIGNAEPQNAVDIQDGNGQTPLMLSVLNGHTDCVYSLLNKGANVDAKDKWGRTALHRGAVTGHEECVDALLQHGAKCLLRDSRGRTPIHLSAACGHIGVLGALLQSAASMDANPATADNHGYTALHWACYNGHETCVELLLEQEVFQKTEGNAFSPLHCAVINDNEGAAEMLIDTLGASIVNATDSKGRTPLHAAAFTDHVECLQLLLSHNAQVNSVDSTGKTPLMMAAENGQTNTVEMLVSSASAELTLQDNSKNTALHLACSKGHETSALLILEKITDRNLINATNAALQTPLHVAARNGLTMVVQELLGKGASVLAVDENGYTPALACAPNKDVADCLALILATMMPVSSSSPLSSLTFNAINRYTNTSKTVSFEALPIMRNEPSSYCSFNNIGGEQEYLYTDVDELNDSDSETY
B2: PP6R1 (endogenous, 293T) (protein, UniProt Q9UPN7 1-881)
chain: MFWKFDLHTSSHLDTLLEREDLSLPELLDEEDVLQECKVVNRKLLDFLLQPPHLQAMVAWVTQEPPDSGEERLRYKYPSVACEILTSDVPQINDALGADESLLNRLYGFLQSTGSLNPLLASFFSKVMGILINRKTDQLVSFLRKKDDFVDLLLQHIGTSAIMDLLLRLLTCVERPQLRQDVVNWLNEEKIVQRLIEQIHPSKDENQHSNASQSLCDIIRLSREQMIQVQDSPEPDQLLATLEKQETIEQLLSNMFEGEQSQSVIVSGIQVLLTLLEPRRPRSESVTVNSFFSSVDGQLELLAQGALESTVSSVGALHALRPRLSCFHQLLLEPPKLEPLQMTWGMLAPPLGNTRLHVVKLLASALSANDAALTHELLALDVPNTMLDLFFHYVFNNFLHAQVEGCVSTMLSLGPPPDSSPETPIQNPVVKHLLQQCRLVERILTSWEENDRVQCAGGPRKGYMGHLTRVAGALVQNTEKGPNAEQLRQLLKELPSEQQEQWEAFVSGPLAETNKKNMVDLVNTHHLHSSSDDEDDRLKEFNFPEEAVLQQAFMDFQMQRMTSAFIDHFGFNDEEFGEQEESVNAPFDKTANITFSLNADDENPNANLLEICYKDRIQQFDDDEEEEDEEEAQGSGESDGEDGAWQGSQLARGARLGQPPGVRSGGSTDSEDEEEEDEEEEEDEEGIGCAARGGATPLSYPSPGPQPPGPSWTATFDPVPTDAPTSPRVSGEEELHTGPPAPQGPLSVPQGLPTQSLASPPARDALQLRSQDPTPPSAPQEATEGSKVTEPSAPCQALVSIGDLQATFHGIRSAPSSSDSATRDPSTSVPASGAHQPPQTTEGEKSPEPLGLPQSQSAQALTPPPIPNGSAPEGPASPGSQ
B3: ANKRD52 (endogenous, 293T) (protein, UniProt Q8NB46 1-1076)
chain: MGILSITDQPPLVQAIFSRDVEEVRSLLSQKENINVLDQERRTPLHAAAYVGDVPILQLLLMSGANVNAKDTLWLTPLHRAAASRNEKVLGLLLAHSADVNARDKLWQTPLHVAAANRATKCAEALAPLLSSLNVADRSGRSALHHAVHSGHLETVNLLLNKGASLNVCDKKERQPLHWAAFLGHLEVLKLLVARGADLGCKDRKGYGLLHTAAASGQIEVVKYLLRMGAEIDEPNAFGNTALHIACYLGQDAVAIELVNAGANVNQPNDKGFTPLHVAAVSTNGALCLELLVNNGADVNYQSKEGKSPLHMAAIHGRFTRSQILIQNGSEIDCADKFGNTPLHVAARYGHELLISTLMTNGADTARRGIHDMFPLHLAVLFGFSDCCRKLLSSGQLYSIVSSLSNEHVLSAGFDINTPDNLGRTCLHAAASGGNVECLNLLLSSGADLRRRDKFGRTPLHYAAANGSYQCAVTLVTAGAGVNEADCKGCSPLHYAAASDTYRRAEPHTPSSHDAEEDEPLKESRRKEAFFCLEFLLDNGADPSLRDRQGYTAVHYAAAYGNRQNLELLLEMSFNCLEDVESTIPVSPLHLAAYNGHCEALKTLAETLVNLDVRDHKGRTALFLATERGSTECVEVLTAHGASALIKERKRKWTPLHAAAASGHTDSLHLLIDSGERADITDVMDAYGQTPLMLAIMNGHVDCVHLLLEKGSTADAADLRGRTALHRGAVTGCEDCLAALLDHDAFVLCRDFKGRTPIHLASACGHTAVLRTLLQAALSTDPLDAGVDYSGYSPMHWASYTGHEDCLELLLEHSPFSYLEGNPFTPLHCAVINNQDSTTEMLLGALGAKIVNSRDAKGRTPLHAAAFADNVSGLRMLLQHQAEVNATDHTGRTALMTAAENGQTAAVEFLLYRGKADLTVLDENKNTALHLACSKGHEKCALMILAETQDLGLINATNSALQMPLHIAARNGLASVVQALLSHGATVLAVDEEGHTPALACAPNKDVADCLALILSTMKPFPPKDAVSPFSFSLLKNCSIAAAKTVGGCGALPHGASCPYSQERPGAIGLDGCYSE

Experiments:
[1] = molecular target: FLAG-Rab40c (transfected in 293T cells) (human) (UniProt Q96S21); assay: co-IP
[2] = molecular target: endogenous Rab40c (293T cells) (human (endogenous in 293T)) (UniProt Q96S21); assay: co-IP

Binder	binding [1]	binding [2]
B1	binds	–
B2	binds	binds
B3	binds	–
